# In PMC9916574:
# No constants are given. Whether binding was seen depends on the method and setting. In cells and extracts the contact can be indirect. Some binding calls cover weakened binding; strength is not graded here. Where a sequence is shown, tags or fusion partners need not be part of it.
# B1: p53 binding domain of Retinoblastoma binding protein 6 (RBBP6), polyhistidine-tagged (domain or fragment, UniProt Q7Z6E9-1 1380-1726)
# chain: VSHEIIQHEVKSSKNSASSEKGKTKDRDYSVLEKENPEKRKNSTQPEKESNLDRLNEQGNFKSLSQSSKEARTSDKHDSTRASSNKDFTPNRDKKTDYDTREYSSSKRRDEKNELTRRKDSPSRNKDSASGQKNKPREERDLPKKGTGDSKKSNSSPSRDRKPHDHKATYDTKRPNEETKSVDKNPCKDREKHVLEARNNKESSGNKLLYILNPPETQVEKEQITGQIDKSTVKPKPQLSHSSRLSSDLTRETDEAAFEPDYNESDSESNVSVKEEESSGNISKDLKDKIVEKAKESLDTAAVVQVGISRNQSHSSPSVSPSRSHSPSGSQTRSHSSSASSAESQDS
# Target: endogenous p53 (human (endogenous in HEK293T)) (UniProt P04637)
# Assay: co-IP; purified recombinant RBBP6-p53BD added to HEK293T cell lysate, 3 h at 4°C; anti-p53 antibody, protein A agarose; beads washed 5 times with PBS; two elution steps; Western blot with anti-polyhistidine; only the binder purified
binder,measurement,value
B1,binding,binds
